These results are taken from patent US7026148.

Amino acid sequences for entries named in this document (tags omitted). A change or cut given only in a name is not applied to a line headed by its entry.
UniProt Q9UIK4: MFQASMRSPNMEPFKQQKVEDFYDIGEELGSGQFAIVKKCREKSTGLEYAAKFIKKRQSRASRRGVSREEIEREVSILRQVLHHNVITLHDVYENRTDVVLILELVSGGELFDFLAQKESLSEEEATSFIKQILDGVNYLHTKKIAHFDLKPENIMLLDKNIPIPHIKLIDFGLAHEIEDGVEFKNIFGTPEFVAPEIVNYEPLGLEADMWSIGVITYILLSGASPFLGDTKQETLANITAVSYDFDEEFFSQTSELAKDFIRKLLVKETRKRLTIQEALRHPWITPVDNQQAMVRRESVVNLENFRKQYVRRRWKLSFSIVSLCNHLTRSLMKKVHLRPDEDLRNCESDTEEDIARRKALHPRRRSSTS

Assay [1] deals with HA-tagged wild type DRP-1 (human) (UniProt Q9UIK4). The experiment in a line: co-immunoprecipitation in both directions, Western blot (FIG. 12A, lane 3).
For assay [2] the target is unchanged. Briefly: co-immunoprecipitation (anti-FLAG and anti-HA) from co-transfected 293 cells, Western blot.
Assay [3] addresses DRP-1 Δ40, HA-tagged (lacks the C-terminal 40 amino acids) (human) (UniProt Q9UIK4). The experiment in a line: co-immunoprecipitation with anti-FLAG M2 gel from co-transfected 293 cells, anti-HA Western blot.
Assay [4] deals with HA-tagged wild type DRP-1 (human) (UniProt Q9UIK4). Described as above.

These are yes or no findings as the source states them, for the method shown. In cells and extracts the contact can be indirect. Some results given as binding are weak or reduced against the parent protein; the word gives no strength.

As for “FLAG-tagged wild type DRP-1 (DAP-kinase-related protein 1) (from UniProt Q9UIK4 11-370) (enzyme)”, the binding entry in assay [1] is “binds”; in assay [2], “binds”; in assay [3], “no binding”; in assay [4], “binds”.
